From patent US6153225A (Elan Pharma International Limited, priority 1998, dated 2000)

Columns and labels:
in vivo = settings: rabbit, plasma, 15 mg/kg
[1] = oral administration; cited from earlier work

Compound COc1ccc2cc([C@H](C)C(=O)O)ccc2c1 [Naproxen, d-2(6-methoxy-2-naphthyl)propionic acid] has an AUC (in vivo; im) of 287 µg·h/mL, a Cmax (in vivo; im) of 45000 ± 9000 ng/mL and a concentration at 0.5 h (in vivo; im) of 23500 ± 5100 ng/mL. For the same compound, the concentration at 12 h (in vivo; im) was 5200 ± 3400 ng/mL, the AUC (in vivo; iv) was 212 µg·h/mL and the gastrointestinal irritation [1] was “frequently results in gastrointestinal irritation”.
